Data: publication PMC9103808

Biological target: RLK20-nYFP (full-length RLK20) (rice)
Test: split reporter; BiFC: RLK20-nYFP and RBOHB-cCFP in tobacco leaves by Agrobacterium-mediated transformation, fluorescence microscopy

B1: RBOHB-cCFP (full-length RBOHB) (enzyme, UniProt Q5ZAJ0 1-905)
chain: MADLEAGMVAAATDQGNSTRSQDDAATLIPNSGNLGSSNRSTKTARFKDDDELVEITLDVQRDSVAIQEVRGVDEGGSGHGTGFDGLPLVSPSSKSGKLTSKLRQVTNGLKMKSSSRKAPSPQAQQSAKRVRKRLDRTKSSAAVALKGLQFVTAKVGNDGWAAVEKRFNQLQVDGVLLRSRFGKCIGMDGSDEFAVQMFDSLARKRGIVKQVLTKDELKDFYEQLTDQGFDNRLRTFFDMVDKNADGRLTAEEVKEIIALSASANKLSKIKERADEYTALIMEELDPTNLGYIEMEDLEALLLQSPSEAAARSTTTHSSKLSKALSMKLASNKEMSPVRHYWQQFMYFLEENWKRSWVMTLWISICIALFIWKFIQYRNRAVFGIMGYCVTTAKGAAETLKFNMALVLLPVCRNTITWIRSKTQVGAVVPFNDNINFHKVIAAGVAVGVALHAGAHLTCDFPRLLHASDAQYELMKPFFGEKRPPNYWWFVKGTEGWTGVVMVVLMAIAFTLAQPWFRRNKLKDSNPLKKMTGFNAFWFTHHLFVIVYTLLFVHGTCLYLSRKWYKKTTWMYLAVPVVLYVSERILRLFRSHDAVGIQKVAVYPGNVLALYMSKPPGFRYRSGQYIFIKCTAVSPYEWHPFSITSAPGDDYLSVHIRTRGDWTSRLRTVFSEACRPPTEGESGLLRADLSKGITDEKARFPKLLVDGPYGAPAQDYREYDVLLLIGLGIGATPLISIVKDVLNHIQGEGSVGTTEPESSSKAKKKPFMTKRAYFYWVTREEGSFEWFRGVMNEVSEKDKDGVIELHNHCSSVYQEGDARSALIVMLQELQHAKKGVDILSGTSVKTHFARPNWRSVFKKVAVSHENQRVGVFYCGEPVLVPQLRQLSADFTHKTNTRFDFHKENF
With B1 the binding was “binds”.

No constants are given. Whether binding was seen depends on the method and setting. Binding seen in cells or lysates may run through a third protein. Binding calls can cover weak binding; strength is not graded here. Where a sequence is shown, tags or fusion partners need not be part of it.
